Results are given in words; binding and its absence hold for the method and conditions named. In cells and extracts the contact can be indirect. A yes stands for co-enrichment or nearness to the bait. Other partners may have been found.
What follows are molecules tested against survivin (human (endogenous in PC3)) (UniProt O15392) (assay: affinity purification with mass spectrometry; PC3 mitochondrial extracts precipitated with an antibody to survivin or control IgG; proteomics identification, two independent replicates per condition).

Chains of the proteins cited; added tags and fusions are not shown. Lines headed by an entry give the natural chain unless they say otherwise; changes in a name come on top. Residues count along the entry.
UniProt Q16740: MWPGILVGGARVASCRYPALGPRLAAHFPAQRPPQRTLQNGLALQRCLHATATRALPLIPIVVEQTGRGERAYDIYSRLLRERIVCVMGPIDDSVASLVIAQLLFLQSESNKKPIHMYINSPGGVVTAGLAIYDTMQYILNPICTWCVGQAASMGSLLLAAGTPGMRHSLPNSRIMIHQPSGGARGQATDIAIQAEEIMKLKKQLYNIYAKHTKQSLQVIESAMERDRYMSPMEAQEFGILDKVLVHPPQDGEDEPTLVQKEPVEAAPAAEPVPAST
UniProt Q96CB9, residues 26-384: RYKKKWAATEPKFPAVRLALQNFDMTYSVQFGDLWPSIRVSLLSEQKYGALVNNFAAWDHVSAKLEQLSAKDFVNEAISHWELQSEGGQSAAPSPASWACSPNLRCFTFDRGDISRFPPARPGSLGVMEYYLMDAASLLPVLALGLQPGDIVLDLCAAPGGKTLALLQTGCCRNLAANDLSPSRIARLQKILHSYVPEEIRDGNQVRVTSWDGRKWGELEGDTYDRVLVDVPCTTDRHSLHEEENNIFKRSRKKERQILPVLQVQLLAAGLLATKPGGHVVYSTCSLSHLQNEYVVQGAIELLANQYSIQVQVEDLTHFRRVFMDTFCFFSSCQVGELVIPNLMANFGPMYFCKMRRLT
UniProt O75127: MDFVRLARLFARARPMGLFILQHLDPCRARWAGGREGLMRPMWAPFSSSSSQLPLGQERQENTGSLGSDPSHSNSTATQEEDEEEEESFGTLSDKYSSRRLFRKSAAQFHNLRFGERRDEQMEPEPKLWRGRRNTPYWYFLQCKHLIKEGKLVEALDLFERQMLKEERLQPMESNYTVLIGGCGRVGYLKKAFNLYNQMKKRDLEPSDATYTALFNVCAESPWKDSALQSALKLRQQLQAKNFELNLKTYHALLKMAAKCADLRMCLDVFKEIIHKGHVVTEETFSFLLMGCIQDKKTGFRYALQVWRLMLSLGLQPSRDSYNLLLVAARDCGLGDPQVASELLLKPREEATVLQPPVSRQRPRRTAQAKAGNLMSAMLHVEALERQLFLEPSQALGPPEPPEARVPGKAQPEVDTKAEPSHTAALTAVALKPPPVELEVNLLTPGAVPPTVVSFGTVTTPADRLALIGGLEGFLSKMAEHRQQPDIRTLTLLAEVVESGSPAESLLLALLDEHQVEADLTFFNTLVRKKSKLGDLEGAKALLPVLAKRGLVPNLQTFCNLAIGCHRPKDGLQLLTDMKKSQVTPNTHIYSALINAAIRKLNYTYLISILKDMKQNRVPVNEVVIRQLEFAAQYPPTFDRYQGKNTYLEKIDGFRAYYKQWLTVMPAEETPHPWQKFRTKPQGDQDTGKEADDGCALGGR

| Molecule | binding |
| --- | --- |
| ClpP, AAA+ peptidase subunit of the ClpXP complex (from UniProt Q16740 57-277) (enzyme) | binds |
| NSUN4 (from UniProt Q96CB9 26-384) (enzyme) | binds |
| PTCD1 (from UniProt O75127 1-700) | binds |
| COQ7 (enzyme, UniProt Q99807 36-217) SSGMTLDNISRAAVDRIIRVDHAGEYGANRIYAGQMAVLGRTSVGPVIQKMWDQEKDHLKKFNELMVTFRVRPTVLMPLWNVLGFALGAGTALLGKEGAMACTVAVEESIAHHYNNQIRTLMEEDPEKYEELLQLIKKFRDEELEHHDIGLDHDAELAPAYAVLKSIIQAGCRVAIYLSERL | binds |

Source: publication PMC4936714
